Reference: article PMC4442312 (eLife, 2015)
Results are given in words; binding and its absence hold for the method and conditions named. For part of these data: A result given as binding can be weak or reduced; the word gives no strength. For part of these data: Sequences can lack the tags named with a protein. For part of these data: In cells and extracts the contact can be indirect.

By UniProt entry, the sequences of proteins in these tests, tags left out. Where a name states a change or a piece, a line headed by the entry shows the natural chain unless it says otherwise.
UniProt Q9Z148: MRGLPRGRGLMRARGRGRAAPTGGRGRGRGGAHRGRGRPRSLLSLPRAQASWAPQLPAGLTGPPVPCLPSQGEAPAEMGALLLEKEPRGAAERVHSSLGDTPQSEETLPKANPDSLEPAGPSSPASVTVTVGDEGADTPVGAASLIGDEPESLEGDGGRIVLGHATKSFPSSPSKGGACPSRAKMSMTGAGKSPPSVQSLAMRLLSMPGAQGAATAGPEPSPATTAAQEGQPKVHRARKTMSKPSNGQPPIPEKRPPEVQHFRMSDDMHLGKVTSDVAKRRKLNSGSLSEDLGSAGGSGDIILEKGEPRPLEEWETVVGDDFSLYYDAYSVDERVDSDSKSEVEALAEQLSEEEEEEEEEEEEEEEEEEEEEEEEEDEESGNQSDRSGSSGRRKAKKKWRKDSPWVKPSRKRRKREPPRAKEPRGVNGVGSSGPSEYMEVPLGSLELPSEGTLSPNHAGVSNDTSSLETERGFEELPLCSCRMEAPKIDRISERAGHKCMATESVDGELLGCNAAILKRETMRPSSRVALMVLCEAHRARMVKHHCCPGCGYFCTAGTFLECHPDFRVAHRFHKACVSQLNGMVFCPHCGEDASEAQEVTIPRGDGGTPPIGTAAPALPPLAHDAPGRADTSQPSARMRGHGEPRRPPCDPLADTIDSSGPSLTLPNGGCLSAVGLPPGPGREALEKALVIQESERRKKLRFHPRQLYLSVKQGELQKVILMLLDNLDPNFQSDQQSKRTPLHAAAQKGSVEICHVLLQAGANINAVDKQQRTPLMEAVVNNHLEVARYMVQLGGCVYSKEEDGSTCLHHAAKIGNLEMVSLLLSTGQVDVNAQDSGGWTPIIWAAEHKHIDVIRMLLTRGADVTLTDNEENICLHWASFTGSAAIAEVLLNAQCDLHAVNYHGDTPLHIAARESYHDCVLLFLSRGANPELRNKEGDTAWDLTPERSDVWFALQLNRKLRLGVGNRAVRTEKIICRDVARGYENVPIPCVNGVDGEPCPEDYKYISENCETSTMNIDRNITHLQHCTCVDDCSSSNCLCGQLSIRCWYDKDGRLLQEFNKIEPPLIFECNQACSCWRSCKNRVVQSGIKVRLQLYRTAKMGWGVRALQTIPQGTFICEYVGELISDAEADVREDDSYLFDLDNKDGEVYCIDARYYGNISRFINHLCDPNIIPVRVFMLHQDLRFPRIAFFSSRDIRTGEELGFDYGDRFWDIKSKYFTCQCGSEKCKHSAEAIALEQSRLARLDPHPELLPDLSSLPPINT
UniProt Q96KQ7: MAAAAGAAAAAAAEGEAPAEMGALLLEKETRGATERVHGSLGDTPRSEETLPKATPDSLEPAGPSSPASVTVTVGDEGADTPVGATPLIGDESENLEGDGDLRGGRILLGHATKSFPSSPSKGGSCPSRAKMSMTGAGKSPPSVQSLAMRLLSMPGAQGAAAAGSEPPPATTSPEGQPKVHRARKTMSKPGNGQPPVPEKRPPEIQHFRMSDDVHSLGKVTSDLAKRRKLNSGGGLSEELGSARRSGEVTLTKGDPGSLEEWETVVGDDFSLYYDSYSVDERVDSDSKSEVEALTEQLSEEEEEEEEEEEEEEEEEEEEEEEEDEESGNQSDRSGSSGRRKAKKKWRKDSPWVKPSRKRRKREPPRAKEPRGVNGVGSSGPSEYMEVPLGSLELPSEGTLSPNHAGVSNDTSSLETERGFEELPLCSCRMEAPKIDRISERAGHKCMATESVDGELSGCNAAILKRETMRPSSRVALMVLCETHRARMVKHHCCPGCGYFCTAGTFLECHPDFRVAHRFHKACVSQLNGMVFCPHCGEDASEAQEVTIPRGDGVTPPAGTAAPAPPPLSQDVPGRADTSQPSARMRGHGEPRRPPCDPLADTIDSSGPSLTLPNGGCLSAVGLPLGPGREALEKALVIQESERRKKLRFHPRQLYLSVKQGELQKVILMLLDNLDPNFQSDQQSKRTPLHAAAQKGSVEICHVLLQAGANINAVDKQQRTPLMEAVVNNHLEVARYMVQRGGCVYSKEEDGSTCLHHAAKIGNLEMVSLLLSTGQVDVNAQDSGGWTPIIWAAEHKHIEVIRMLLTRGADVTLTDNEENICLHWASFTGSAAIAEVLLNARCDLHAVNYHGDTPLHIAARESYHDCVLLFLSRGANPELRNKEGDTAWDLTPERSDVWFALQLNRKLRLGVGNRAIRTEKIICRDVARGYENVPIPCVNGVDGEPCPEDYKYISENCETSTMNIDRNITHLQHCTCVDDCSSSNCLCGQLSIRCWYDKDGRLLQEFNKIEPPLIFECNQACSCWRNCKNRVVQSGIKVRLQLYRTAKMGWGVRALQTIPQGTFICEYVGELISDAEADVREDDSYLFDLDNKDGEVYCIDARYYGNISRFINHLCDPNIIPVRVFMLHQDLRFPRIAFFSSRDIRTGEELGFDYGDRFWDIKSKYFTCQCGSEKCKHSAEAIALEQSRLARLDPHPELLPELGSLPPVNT

T1: T7-ORCA (full-length) (human) (UniProt Q9UFC0)
T1 sequence: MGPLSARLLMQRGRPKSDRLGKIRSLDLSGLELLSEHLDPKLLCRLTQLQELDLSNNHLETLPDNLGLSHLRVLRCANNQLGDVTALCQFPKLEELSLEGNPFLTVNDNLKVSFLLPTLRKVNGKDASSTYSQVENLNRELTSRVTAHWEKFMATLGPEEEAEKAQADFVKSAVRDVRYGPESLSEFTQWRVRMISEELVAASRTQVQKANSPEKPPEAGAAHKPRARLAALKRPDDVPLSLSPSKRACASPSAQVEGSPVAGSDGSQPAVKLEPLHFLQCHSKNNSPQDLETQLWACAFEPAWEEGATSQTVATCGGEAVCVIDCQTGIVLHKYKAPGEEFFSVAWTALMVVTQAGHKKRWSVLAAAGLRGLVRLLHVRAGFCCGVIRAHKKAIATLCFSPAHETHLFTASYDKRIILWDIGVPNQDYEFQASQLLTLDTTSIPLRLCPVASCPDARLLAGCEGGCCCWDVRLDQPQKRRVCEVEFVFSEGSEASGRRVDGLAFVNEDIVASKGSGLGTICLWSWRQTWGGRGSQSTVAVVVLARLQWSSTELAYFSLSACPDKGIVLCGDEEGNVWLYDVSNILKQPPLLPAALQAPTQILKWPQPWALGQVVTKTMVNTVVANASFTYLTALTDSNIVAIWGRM

B1: CFP-ORCA (protein, UniProt Q9UFC0 1-647)
chain: T1 sequence

How the values were obtained:
[1] = target: T1, T7-ORCA (full-length) (human); assay: co-IP; transient co-transfection in U2OS; IP buffer 50 mM Tris pH 7.4, 150 mM NaCl, 10% glycerol, 0.1% NP-40, 1 mM DTT; antibody-conjugated agarose (ORCA, T7 or HA antibody) overnight; immunoblot; for G9a-Suv39H1 also in control and ORCA siRNA cells
[2] = target: YFP-LacI-G9a-ΔSET (mouse) (UniProt Q9Z148); assay: LacI tethering to a lac operator array (CLTon locus), recruitment seen by fluorescence microscopy; U2OS 2-6-3 CLTon cells, condensed heterochromatic locus (no doxycycline); LacI fusion tethered, fluorescent partner scored at the locus
[3] = target: YFP-LacI-G9a (full length, wild type) (not stated (human or mouse cDNA cloned)); assay: as above

binding [1]	binding [2]	binding [3]	Molecule
binds			GFP-G9a-ΔSET (from UniProt Q96KQ7) (enzyme)
	no binding	binds	B1
